Structures are written as SMILES. Structures can show the parent of a compound that is named as a salt.

For this data set, the system named is 5G10 monoclonal antibody. As to the kind of experiment: Intra- and inter-assay variation for determination of racemic ractopamine spiked into diluted (1:10) urine. Also on record: species or system mouse.
The mark [1] stands for this setting: inter-assay (n = 5), spike 1 ng/ml.
Setting [2] is: inter-assay (n = 5), spike 5 ng/ml.
Setting [3] is: inter-assay (n = 5), spike 10 ng/ml.
Where [4] appears, read: inter-assay (n = 5), spike 20 ng/ml.
The mark [5] stands for this setting: intra-assay (n = 12), spike 1 ng/ml.
[6] abbreviates: intra-assay (n = 12), spike 5 ng/ml.
Setting [7] is: intra-assay (n = 12), spike 10 ng/ml.
[8] abbreviates: intra-assay (n = 12), spike 20 ng/ml.

For the compound `CC(CCc1ccc(O)cc1)NCC(O)c1ccc(O)cc1` (racemic) [Ractopamine (racemic), (1R*, 3R*), (1R*, 3S*)-4-hydroxy-β-[[[3-(4-hydroxyphenyl)-1-methylpropyl]amino]methyl]-benzenemethanol hydrochloride], the Found reads like this: under setting [1], 1.1 ± 0.4 ng/mL; under setting [2], 3.9 ± 0.6 ng/mL; under setting [3], 9.5 ± 1.7 ng/mL; under setting [4], 22.4 ± 5.6 ng/mL; under setting [5], 1.2 ± 0.06 ng/mL; under setting [6], 4.2 ± 0.2 ng/mL. The Found is, setting by setting: under setting [7], 10.4 ± 0.6 ng/mL; under setting [8], 20.6 ± 0.7 ng/mL. Besides, the Percentage recovery runs as follows: under setting [1], 110%; under setting [2], 78%; under setting [3], 95%; under setting [4], 112%; under setting [5], 120%; under setting [6], 84%. Besides, the Percentage recovery worked out at 104% under setting [7] and 103% under setting [8].

The values above are taken from US6274334A, “Monoclonal antibody, cell line and immunoassay for ractopamine” (The United States of America as represented by the …, priority 2000, dated 2001).
